Source: article PMC8964110
Results are given in words; binding and its absence hold for the method and conditions named. Binding seen in cells or lysates may run through a third protein. These calls come from enrichment with a bait or labelling near it, and not all partners need be listed.

B1: 3-ketoacyl-CoA synthase (protein, UniProt C4M2E3 1-495)
chain: MSCEQDKERSLKDYWYPKEIGEQNEILPSLKANVNRGSPLTKGIDFTVTTILYSIPLIILYISYKTWYSFLDVSNGIFVENNKCVLIVGFVIVLGLIAGGVYYWATRRRQVLLVDFAVAWPDDNLKITADGVRDIIVKCGLFEQQYIDFQTKLLYRTGLGNETYLPRPFHEYPFKTTMALSREECAIVMKNCCDQLFAQTGIDPTKDIDIVICNCSLFNPTPSISAMLMNMYKLKQTCKNYNLAGMGCSAGLVSIDLARDLLNVYPNINLLVFSTENITQNWYDGKEKGMLISNTLFRMGGAAVLLSNKNSWRKKAKFELLTTVRIHHGKYDDSYHAVFQFEDGEGKVGVKIGRELLKCVTRALTQNMNILMPQVISYRDMFRFVIFFIKQKLGKIDAKETFMPNFRETFQAYCIHAGGRAIIDGLQENLKLTDEDCMPSRATLYRVGNTSSSSVWYEMKFIERIDTLKKGDKVWQVAFGSGLKCNSCVWRKICN
B2: 3-oxo-5-alpha-steroid 4-dehydrogenase domain-containing protein (protein, UniProt C4M2S8 1-285)
chain: MVKILYKGNTYTVETELTKQVRELRFDIEKVVGLKACRQRLWYQKGEEKVVLEVDKTLQESGVTEDTPIEMKDLGAQLPFRFVYICEYVGPLALYVLIYLISLLAGYPSLLQNKLAVIMWVIHYIKRIVETIYVHEFGDMTMPVFNLYKNCTYYYGFAIAVAINVNFFPRENCSILIILGLIGMIVSIISNGYCHLLLKQLRTPGSQEWKMPHGFLFEYITCANYFCEIMTWIFFNVMTGFSFFGIAFSCCGIYQMREWAYQRHQKYLHMFPDYPKRWILIPFIY
B3: Ras family GTPase (EHI_058090) (protein, UniProt C4M8B0 1-184)
chain: MPVKDYKIVVLGSGAVGKSSITVRFVQGIFLVKYDPTIEDSYRKQLDLDGQQYVLEILDTAGTEQFTAMRDLYMKTGQGFVLVYSIIAQSTYNDLDPIHDQIVRVRDTENVPIIVVGNKCDLESQRIVSQDDGKALADKYGAEFLEVSAKAEIRISDIFTTLIKRINAMNQTKPKKKSGGCSLF
B4: DEAD/DEAH box helicase (protein, UniProt C4LYI1 1-391)
chain: MASDIPTEQIESTVEAIQSFDAMGIKDELLRSIYSYGFEKPSAIQQRAIVPLMQGRNLIAQAQSGTGKTAAFSIGVLQQIDTNSKVCQAILLSPTRELALQTQEVVKNLSQYLDIKTFACIGGTSVRETIEALRNGVQVVVGTPGRVLDMLDRQAIDPNTVKYLILDEADEMLSQGFKDQMYTILKSLPSTVQVGMFSATMPADALDISKKFMENPVKILVKKEELTLEGIKQFYIDVVKDEYKIDTLIDLYQVISVNQSVIFCNSKNRVEWIQRRLQAHNYPVSITHGDLTMEERNNVLNEFRQGATRILITTDMLSRGIDVQQVSLVINFDMPVSDESYIHRIGRSARFGRKGVAIDFITTEEMDTINRLQKTYETKIVPLPKTFMDYL
B5: Xaa-Pro dipeptidase (protein, UniProt C4M0S1 1-471)
chain: MSKIIIPDIPKICKSTTSHFLKYFKANQKPQDSIIFLEGGLELPFYDTDGEYLFRQESNFHYLFGVKEAGFYGIVKMDGTRILFLPQLPETLQIFLGPNLHPEDVKRMYGVEEAYYDSQIEEVLSKLNPSMIYLYAKGVNSDSGSQPAPIRTKAVYKYNTNETELHDVLFEARTVKTKEEIDFMRLAINGTAEAHRACMKYCKPGMYEFELEAEFYRVAYGQYGMRNFGYFPICASGNKGATMHYGHAGHPNRKIMEDGEMVLMDVGTECHRYATDLTLTYPINGKFTEQQKTIYNIVLSCNRGCEAAMKPGVKWYNIHELSNKLMLKGLLEAGLIKGDVEEMYKNDVHFYFMPHGIGHLIGIDTHDVGGFNLGIPRSDNCSLKKCRSNRVLEAGNIYTVEPGIYFIPFLLESGFKNEQVKKYLVENEIRKYWNFGGVRIEDDVLVTEEGVEVLDKDIPRTVEEIEAFMKH
B6: Filamin 2, putative (protein, UniProt C4LZ72 1-857)
chain: MSQPQWVLTQKKTFTKWANVQLSGAYVINDVETDLNDGLILISLFEALRKQKVQFRYNKKPKMRVAKLENTEQALNFIKADGVKLVNIDAQNIVDGNLTLILGLLWTLILKYQIAQNKMDASKNALLEWVNSKLTSRKIKNFSNDWNTGDVLNELIHALEPDFIDLADSASKGEGEERIQYGLSIAEDKMEIPAIIAAEDMALPEPDELSVMAYVSYFRHYEAEKEKRLGEAERLAREAELMRTPDPSKCVMSGPGLKTGEVLVPQEFTVTAKNCKGDQITQGGVTWNAHVFDPEGNEIPIEQKDNGDGTYDMTYVPQVPGKHKVEVAYEDKQLKQSPAIVMIEPAQADPENTYADGEGVEKCDAGKGPVKFTIHCVNKVGTAVPVTGAKFKVIIRSNDGNEIPHELVDNNDGTYTGSYVPVPGIDTVFITLLNQGIKGNPYQCKVFQDPSTACIGESYAFGPGVEGGVTIDKTPVFRIQGVTPEGKKCTKGGDEFKVEITDPEGKKQTAKVVDRHNGKYDVKYKAKVPGIYDVQVLLKNPENPEEFKDIKGSVYHPEIKDGVDAKKCVVDGEGIERPNDQEDNVFTIHAKNFKGEDVPVGGHPFQVIIDQVTESEKKKKKEGEKSSSSCSSSEEEEDDAEDEELFAFLNDGEEAEQGEEKAKEEGAEEPKEEEKKEVAEEEPKKEEEEKEEEKKEEGAEEPKEEIEGKKVAQKQQGSIPCTVIDNENGTYDVHYRAAAGKIRVKIELNKQRVGKSPYHLEVEEDADADESGVENFCFVVQAKNRRGQVQADGKAKFTVELDGPNGKLEEQKVKVKHLGEGKYFIRYSLPAEKGEYHINCKLNRRHIAGSPFKQTVN
B7: 40S ribosomal protein S8 (protein, UniProt C4M0Q2 1-237)
chain: MGITRDSRHKRRATGGKKNSMQKKKKNTMGRQPANTRLGAIRVHDVRCRYGIIKRRALRLENGNFSWASQSITKGTKILNVVYNASDNDFVRTNTLVKGAIIEIDPAPFRLWFLKFYGKDIASTDYYKSLESATFKTEKKVVLPKEEENKEKTIAQQIAETQVALMNPSKTMQKKYAKKLEVLKNMKFDEALLEGFQSGRVLACISSRPGQTGSVEGYILEGKELDFYSKKISDKKK
B8: Aldehyde-alcohol dehydrogenase (protein, UniProt Q24803 1-870)
chain: MSTQQTMTVDEHINQLVAKAQVALKEYLKPEYTQEKIDYIVKKASVAALDQHCALAAAAVEETGRGIFEDKATKNIFACEHVTHEMRHAKTVGIINVDPLYGITEIAEPVGVVCGVTPVTNPTSTAIFKSLISIKTRNPIVFSFHPSALKCSIMAAKIVRDAAISAGAPENCIQWIEFGGIEASNKLMNHPGVATILATGGNAMVKAAYSSGKPALGVGAGNVPTYIEKTCNIKQAANDVVMSKSFDNGMICASEQAAIIDKEIYDQVVEEMKTLGAYFINEEEKAKLEKFMFGVNAYSADVNNARLNPKCPGMSPQWFAEQVGIKVPEDCNIICAVCKEVGPNEPLTREKLSPVLAILKAENTQDGIDKAEAMVEFNGRGHSAAIHSNDKAVVEKYALTMKACRILHNTPSSQGGIGSIYNYIWPSFTLGCGSYGGNSVSANVTYHNLLNIKRLADRRNNLQWFRVPPKIFFEPHSIRYLAELKELSKIFIVSDRMMYKLGYVDRVMDVLKRRSNEVEIEIFIDVEPDPSIQTVQKGLAVMNTFGPDNIIAIGGGSAMDAAKIMWLLYEHPEADFFAMKQKFIDLRKRAFKFPTMGKKARLICIPTTSGTGSEVTPFAVISDHETGKKYPLADYSLTPSVAIVDPMFTMSLPKRAIADTGLDVLVHATEAYVSVMANEYTDGLAREAVKLVFENLLKSYNGDLEAREKMHNAATIAGMAFASAFLGMDHSMAHKVGAAFHLPHGRCVAVLLPHVIRYNGQKPRKLAMWPKYNFYKADQRYMELAQMVGLKCNTPAEGVEAFAKACEELMKATETITGFKQANIDEAAWMSKVPEMALLAFEDQCSPANPRVPMVKDMEKILKAAYYPIA
B9: Calreticulin (protein, UniProt P83003 14-389)
chain: KVYFHETFENRDKWIDSTSSGKALGPFKIVSGKWYGDANNKGLQTSEDNKFYIAAAKLDEEFSNKDKNLIVQYNLKFEQGIDCGGGYIKLLPKKSIESEEKFTPESEYNIMFGPDVCGGSKRTHVIMNYKGKNNLIRKEIKCESDDISHLYTLIIRPNNTYVVKIDGVEKQEGKFDEDWDMLAPKEIDDPNVSKPADWVDEKEIDDPNDKKPEGWDDIPKTIVDPNAKKPEEWNDEDDGEWEAPTIENPEYKGEWKPKRIPNPAYKGEWVHPQIANPDYVYDPELYKYDSFAYIGIDVWQVKAGTIYDDILITDDIEEAEKEAKVILERNAAEKKMRDEIKEAEKQKEEEAKKEAEKQKEEETKEEIKKEENKEEL
B10: ATP-sulfurylase (protein, UniProt O76156 1-423)
chain: MSIQENLNNLIKPHGGKLIKTLKYGAERDECIKEAKSLPKIDISSREFGDLVMMGIGGFSPLNGFMKKEDWFSVCKNFTLADGTFWPIPITMSVSEEEAKKLKRGQKVALKYNKDINDISGTIEIDQVYEMTKKDKEMECKDIFTTTDSDHPGVKKVMEQKPFNVAGKVTTLSEGEFPIKYKGIYMTPEESRLNFAKKGWKTIAALQLRNPMHRSHEFLAKIAVEVCDGVFIHSLVGNLKPGDIPAEVRVKCIDALVDKYFVKKNVLQGGYPLDMRYGGPREALLHATFRQNYGCTHMIIGRDHAGVGDYYGPFDAQKIFDKIPYNADPKKRLLTQPMKIDWTFYCHKCDGMASLRTCPHTKKDRVIVSGTMVRKMLSEGKTLPDHFGRAESLKILADYYQHLDKSKKVTIKLQKFATGDAMK
B11: 90 kDa heat shock protein (protein, UniProt C4M3S9 1-711)
chain: MLVFVTLLLLLLGVSAQEKKNFDVEVSRLMHLIIHSLYTNKEIFLRELISNASDAIDKLRFLCITDKSLNIDPSSFKIRIGIDAAKGSIYIIDNGIGMTKEELGKNLGTIAKSGTAEFIKKLESTEDHKNLIGQFGVGFYSSFLVAENVTVISRKAGLEESYAWESNGEGFVVRELKEDEVPMEEQGTKIILELKDKYFLDINVLKDLVKKYSEFIQFPIEMEITKKEEEEVEDTEAMKQEAQEKAKKRIEEGETSKTEEELIEEELKNVEVKHKFITKNITSWEAINVNKPIWMRSDVTDEEYNQFYKALTKDTKDPLAKIHFNTEGDSVFRALLYIPAEGPNPFAPKDPEKLKQMLRLYVRRVFVSGDFYTTLPDYLTFIRGVIDSDDLPLNVGRELIQENRHIDRIKRKVVRKVLQLIQDLSENNSTVFEAFMKEYSVQMKIGAITDVPNRGRIAKLLRYHSSISGNETMSFQDYIGRLKENQTEIYYVCADSLEEAKNSPVAQSAVNAGYEVIYMTDPVDEAASRSINTFEGKTLVDLGKDGFGVENDDKEYDELKEFIQENIKEISKVEVSNKLGNVAGVVISGKDGLTANMEKLIKAHATANKKDFNLENIKRVLIINGEHDIIIKINMLIKEDKKEQAIEFVKGMYNTALIQSGYTVTDSNEYAQWVQRMIEKELSEIEEVEKKEEKEEKTVGVDDIVNQKNEL
B12: Grainin 1 (protein, UniProt C4MAF9 1-215)
chain: MSLFAIQAAADAWVAQHITAAYQADPLIQREWWYPLATSISGTEFKELQDFFVKTDKDKSGSLELDELKKAKFPGGIKLDENACRHLMRIFDVDLSGSIGFYEYLALMKFVKLATAVFTKFDKDKSGNLDEQEIYAALPELGFDLNMKACKILIQLCGKGLLTKKIQISQFISCAAYLGQIRTIYQHGFKQAQGDFNRATFSKFMNLTLMLMDDA

Molecular target: EhVps23 (E. histolytica (endogenous in HM1:IMSS trophozoites))
Assay: affinity purification with mass spectrometry; immunoprecipitation with α-EhVps23 antibody and protein G-agarose from trophozoite lysates (10 mM Tris-HCl, 50 mM NaCl, protease inhibitors, freeze-thawing; pre-cleared with Protein-G, 2 h at 4°C); precipitate separated by gel electrophoresis, LC-ESI-HDMSE

Binder	binding
B1	binds
B2	binds
B3	binds
B4	binds
B5	binds
B6	binds
B7	binds
B8	binds
B9	binds
B10	binds
B11	binds
B12	binds
